Some results were stated once for a whole list of compounds, not compound by compound.
Columns and labels:
[1] = test system: SETFA; experiment: greenhouse test, pre-emergence treatment; assay type: in vivo, Setaria faberi; settings: scale from 0 to 100
[2] = test system: SETVI; experiment: greenhouse test, post-emergence treatment; assay type: in vivo, Setaria viridis; settings: application rate 1.0 kg/ha, scale from 0 to 100
[3] = test system: ECHCG; experiment: greenhouse test, pre-emergence treatment; assay type: in vivo, Echinochloa crus-galli; settings: scale from 0 to 100
Description: (§1) The culture containers used were plastic flowerpots containing loamy sand with approximately 3.0% of humus as the substrate. The seeds of the test plants were sown separately for each species.
(§2) For the pre-emergence treatment, the active compounds, which had been suspended or emulsified in water, were applied directly after sowing by means of finely distributing nozzles. The containers were irrigated gently to promote germination and growth and subsequently covered with transparent plastic hoods until the plants had rooted. This cover caused uniform germination of the test plants, unless this has been impaired by the active compounds.
(§3) Depending on the species, the plants were kept at 10-25° C. or 20-35° C. The test period extended over 2 to 4 weeks. During this time, the plants were tended, and their response to the individual treatments was evaluated.
(§4) Evaluation was carried out using a scale from 0 to 100. 100 means no emergence of the plants, or complete destruction of at least the aerial moieties, and 0 means no damage, or normal course of growth. A good herbicidal activity is given at values of at least 70 and a very good herbicidal activity is given at values of at least 85.
(§5) The respective stated components A and B were formulated as a 5% by weight strength or 10% by weight strength emulsion concentrate, or a commercial formulation of component B was used, and, with addition of the amount of solvent system, introduced into the spray liquor used for applying the active compound. In the examples, the solvent used was water.
(§6) The test period extended over 20 or 21 days. During this time, the plants were tended, and their reactions to the treatments with active compound were monitored.
(§7) In the examples below, using the method of S. R. Colby (1967) “Calculating synergistic and antagonistic responses of herbicide combinations”, Weeds 15, p. 22ff., the value E, which is expected if the activity of the individual active compounds is only additive, was calculated.
(§8) What was evaluated was the damage by the chemical compositions using a scale of from 0 to 100%, in comparison to the untreated control plants. 0 means no damage, and 100 means complete destruction of the plants.

[4] = test system: ALOMY; experiment: greenhouse test, pre-emergence treatment; assay type: in vivo, Alopecurus agrestis; settings: application rate 1.0 kg/ha, scale from 0 to 100
Description: as §1, §2, §3, §4, §5, §6, §7, §8

[5] = test system: AMARE; experiment: greenhouse test, post-emergence treatment; assay type: in vivo, Amaranthus retoflexus; settings: application rate 1.0 kg/ha, scale from 0 to 100
[6] = test system: APESV; experiment: greenhouse test, pre-emergence treatment; assay type: in vivo, Apera spica-venti; settings: scale from 0 to 100
Description: as §1, §2, §3, §4, §5, §6, §7, §8

[7] = test system: AMARE; experiment: greenhouse test, pre-emergence treatment; assay type: in vivo, Amaranthus retoflexus; settings: scale from 0 to 100

| Structure (SMILES) | herbicidal activity against SETFA ([1]; application rate 1.0 kg/ha) | herbicidal activity against ECHCG ([3]; application rate 1.0 kg/ha) | herbicidal activity against ALOMY [4] | herbicidal activity against APESV ([6]; application rate 1.0 kg/ha) | further results |
| --- | --- | --- | --- | --- | --- |
| CSc1ncccc1C=C1C(=O)N(C)C(C)(Cc2ccccc2)C(=O)N1C (racemic) [I-50] | very good (a very good herbicidal activity is given at values of at least 85) | very good (a very good herbicidal activity is given at values of at least 85) | very good (a very good herbicidal activity is given at values of at least 85) | very good (a very good herbicidal activity is given at values of at least 85) | herbicidal activity against SETVI [2]: very good (a very good herbicidal activity is given at values of at least 85); herbicidal activity against AMARE [5]: very good (a very good herbicidal activity is given at values of at least 85) |
| CN1C(=O)C(C)(Cc2ccccc2)N(C)C(=O)C1=Cc1cccnc1C(F)(F)F (racemic) [I-23] |  |  | very good (a very good herbicidal activity is given at values of at least 85) |  | herbicidal activity against AMARE ([7]; application rate 1.0 kg/ha): very good (a very good herbicidal activity is given at values of at least 85) |
| CN1C(=O)C(C)(Cc2cccc(F)c2)N(C)C(=O)C1=Cc1cc(F)cnc1C#N (racemic) [I-78] | very good (a very good herbicidal activity is given at values of at least 85) |  | very good (a very good herbicidal activity is given at values of at least 85) | very good (a very good herbicidal activity is given at values of at least 85) |  |
| CN1C(=O)C(C)(Cc2ccccc2)N(C)C(=O)C1=Cc1cccnc1Cl (racemic) [I-8] | very good (a very good herbicidal activity is given at values of at least 85) | very good (a very good herbicidal activity is given at values of at least 85) | very good (a very good herbicidal activity is given at values of at least 85) | very good (a very good herbicidal activity is given at values of at least 85) |  |
| CN1C(=O)C(C)(Cc2ccccc2)N(C)C(=O)C1=Cc1cccnc1Br (racemic) [I-1] | very good (a very good herbicidal activity is given at values of at least 85) | very good (a very good herbicidal activity is given at values of at least 85) | very good (a very good herbicidal activity is given at values of at least 85) | very good (a very good herbicidal activity is given at values of at least 85) | herbicidal activity against SETVI [2]: very good (a very good herbicidal activity is given at values of at least 85); herbicidal activity against AMARE [5]: very good (a very good herbicidal activity is given at values of at least 85) |
| CN1C(=O)C(C)(Cc2ccccc2)N(C)C(=O)C1=Cc1cccnc1[N+](=O)[O-] (racemic) [I-22] | very good (a very good herbicidal activity is given at values of at least 85) | very good (a very good herbicidal activity is given at values of at least 85) | very good (a very good herbicidal activity is given at values of at least 85) | very good (a very good herbicidal activity is given at values of at least 85) |  |
| CC(=O)N1C(=O)C(=Cc2cccnc2C#N)N(C)C(=O)C1(C)Cc1ccccc1 (racemic) [I-132] | very good (a very good herbicidal activity is given at values of at least 85) | very good (a very good herbicidal activity is given at values of at least 85) | very good (a very good herbicidal activity is given at values of at least 85) |  |  |
| CC(Oc1ncccc1C=C1C(=O)N(C)C(C)(Cc2ccccc2)C(=O)N1C)C(=O)N(C)C (racemic) [I-404] |  |  |  |  | herbicidal activity against AMARE ([7]; application rate 0.5 kg/ha): very good (a very good herbicidal activity is given at values of at least 85) |
| CN1C(=O)C(C)(Cc2ccccc2)N(C)C(=O)C1=Cc1nccnc1C#N (racemic) [I-51] |  |  | very good (a very good herbicidal activity is given at values of at least 85) | very good (a very good herbicidal activity is given at values of at least 85) |  |
| CN1C(=O)C(C)(Cc2ccccc2)N(C)C(=O)C1=Cc1cccnc1-c1cncnc1 (racemic) [I-27] | very good (a very good herbicidal activity is given at values of at least 85) | very good (a very good herbicidal activity is given at values of at least 85) |  | very good (a very good herbicidal activity is given at values of at least 85) |  |
| COc1ncc(Cl)cc1C=C1C(=O)N(C)C(C)(Cc2ccccc2)C(=O)N1C (racemic) [I-521] |  |  |  |  | herbicidal activity against SETFA ([1]; application rate 0.5 kg/ha): very good (a very good herbicidal activity is given at values of at least 85); herbicidal activity against ECHCG ([3]; application rate 0.5 kg/ha): very good (a very good herbicidal activity is given at values of at least 85); herbicidal activity against APESV ([6]; application rate 0.5 kg/ha): very good (a very good herbicidal activity is given at values of at least 85) |
| CN1C(=O)C(C)(Cc2ccccc2)NC(=O)C1=Cc1cccnc1C1CC1 (racemic) [I-419] |  |  |  |  | herbicidal activity against SETFA ([1]; application rate 0.5 kg/ha): very good (a very good herbicidal activity is given at values of at least 85); herbicidal activity against ECHCG ([3]; application rate 0.5 kg/ha): very good (a very good herbicidal activity is given at values of at least 85); herbicidal activity against APESV ([6]; application rate 0.5 kg/ha): very good (a very good herbicidal activity is given at values of at least 85) |
| CC(c1ncccc1C=C1C(=O)N(C)C(C)(Cc2ccccc2)C(=O)N1C)=[N+](C)[O-] (racemic) [I-497] |  |  |  |  | herbicidal activity against SETFA ([1]; application rate 0.5 kg/ha): very good (a very good herbicidal activity is given at values of at least 85); herbicidal activity against ECHCG ([3]; application rate 0.5 kg/ha): very good (a very good herbicidal activity is given at values of at least 85); herbicidal activity against APESV ([6]; application rate 0.5 kg/ha): very good (a very good herbicidal activity is given at values of at least 85) |
| Cc1cnc(C#N)c(C=C2C(=O)N(C)C(C)(Cc3ccccc3)C(=O)N2C)c1 (racemic) [I-52] | very good (a very good herbicidal activity is given at values of at least 85) | very good (a very good herbicidal activity is given at values of at least 85) |  |  | herbicidal activity against AMARE ([7]; application rate 1.0 kg/ha): very good (a very good herbicidal activity is given at values of at least 85) |

From US20110130286A1, “Piperazine Compounds with Herbicidal Effect” (BASF SE, priority 2008, published 2011)
